Reference: patent US20030087799A1, “Modulation” (priority 2001, published 2003)

Tested on: SK mediated AHP currents (I-AHP) in dopaminergic neurons
Type: cell-based, mouse

Q: For `COC(=O)C1=C(C)NC(C)=C(C(=O)OC)C1c1ccccc1[N+](=O)[O-]` [nifedipine], which I-AHP residual current is on record?
A: The I-AHP residual current was 102±6%.
